Results from patent publication US5342839A, “2-hydroxy-3-phenoxy-propyl-substituted piperazines, their preparation and use” (BASF Aktiengesellschaft, priority 1988, dated 1994).
pKi: −log10 of the molar value.

Amino acid sequences for entries named in this document (tags omitted). Residues count along the entry.
UniProt A0A286X7I0, 1-1867: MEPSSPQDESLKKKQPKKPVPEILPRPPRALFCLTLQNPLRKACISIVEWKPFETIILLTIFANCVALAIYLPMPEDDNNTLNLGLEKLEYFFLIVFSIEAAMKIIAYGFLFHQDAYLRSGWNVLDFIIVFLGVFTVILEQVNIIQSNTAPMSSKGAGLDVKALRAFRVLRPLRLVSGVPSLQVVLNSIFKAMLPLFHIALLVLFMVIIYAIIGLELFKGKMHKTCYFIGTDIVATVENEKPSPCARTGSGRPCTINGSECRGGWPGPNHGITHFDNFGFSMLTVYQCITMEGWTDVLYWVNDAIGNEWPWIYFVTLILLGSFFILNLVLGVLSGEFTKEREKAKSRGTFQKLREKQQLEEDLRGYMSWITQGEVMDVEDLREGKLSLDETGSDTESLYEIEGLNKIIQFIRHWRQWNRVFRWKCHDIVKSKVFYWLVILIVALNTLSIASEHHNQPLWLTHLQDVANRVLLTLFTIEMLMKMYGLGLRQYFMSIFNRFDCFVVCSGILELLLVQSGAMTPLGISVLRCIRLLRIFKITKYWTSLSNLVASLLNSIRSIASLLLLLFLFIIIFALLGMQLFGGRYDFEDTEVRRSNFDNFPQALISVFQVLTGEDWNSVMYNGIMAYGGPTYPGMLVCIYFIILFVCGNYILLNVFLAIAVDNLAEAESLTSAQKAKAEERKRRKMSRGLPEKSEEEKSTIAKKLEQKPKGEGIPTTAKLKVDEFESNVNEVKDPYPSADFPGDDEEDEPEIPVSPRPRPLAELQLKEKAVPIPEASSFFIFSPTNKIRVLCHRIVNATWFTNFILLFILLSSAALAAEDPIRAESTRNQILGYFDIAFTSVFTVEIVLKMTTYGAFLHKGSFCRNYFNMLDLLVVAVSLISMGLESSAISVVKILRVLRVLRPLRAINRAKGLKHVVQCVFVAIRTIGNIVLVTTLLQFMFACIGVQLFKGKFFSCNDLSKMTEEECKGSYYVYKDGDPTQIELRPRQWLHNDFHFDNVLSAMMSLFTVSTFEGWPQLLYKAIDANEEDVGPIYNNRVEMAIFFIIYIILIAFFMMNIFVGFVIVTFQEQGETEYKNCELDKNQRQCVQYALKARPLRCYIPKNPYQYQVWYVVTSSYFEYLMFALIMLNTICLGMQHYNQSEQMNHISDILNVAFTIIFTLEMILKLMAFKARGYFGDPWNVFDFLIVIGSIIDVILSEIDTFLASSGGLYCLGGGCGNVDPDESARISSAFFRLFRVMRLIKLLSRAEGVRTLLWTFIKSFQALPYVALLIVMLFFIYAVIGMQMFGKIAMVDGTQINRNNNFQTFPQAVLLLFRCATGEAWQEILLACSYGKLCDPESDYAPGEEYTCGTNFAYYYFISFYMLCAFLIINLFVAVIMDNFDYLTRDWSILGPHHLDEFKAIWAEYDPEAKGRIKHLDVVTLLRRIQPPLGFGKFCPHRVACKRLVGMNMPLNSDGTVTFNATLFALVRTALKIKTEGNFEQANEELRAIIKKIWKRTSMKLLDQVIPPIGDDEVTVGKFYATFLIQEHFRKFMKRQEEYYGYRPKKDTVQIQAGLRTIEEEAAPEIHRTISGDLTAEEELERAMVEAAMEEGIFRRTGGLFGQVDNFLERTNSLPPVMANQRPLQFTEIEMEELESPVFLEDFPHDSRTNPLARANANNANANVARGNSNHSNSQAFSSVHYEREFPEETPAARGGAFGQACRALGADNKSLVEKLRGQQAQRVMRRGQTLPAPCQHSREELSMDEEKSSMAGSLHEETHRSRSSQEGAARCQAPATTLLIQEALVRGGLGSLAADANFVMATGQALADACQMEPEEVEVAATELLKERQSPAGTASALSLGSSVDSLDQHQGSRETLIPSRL

Target: T1, calcium channel (Cavia porcellus, UniProt A0A286X7I0)
T1 construct: guinea-pig skeletal muscle membranes; from tissue; host or cells: guinea-pig skeletal muscle membranes
Assay: Affinity to the calcium channel: inhibition of specific (S)-3H-devapamil binding to guinea-pig skeletal muscle membranes
Conditions: 1 nM (S)-3H-devapamil, pH 7.4, 20° C., 60 minutes, read-out: Test 3 Ki
Description: 3. Affinity of the test substances to the calcium channel.
The affinity of the test substances to the calcium channel was determined by inhibition of the specific (S)-^3 H-devapamil binding to guinea-pig skeletal muscle membranes (FEBS Lett. 176, 371 (1984)). For this, the membranes were incubated with a fixed concentration of 1 nM (S)-^3 H-devapamil and increasing concentrations of test substance in 50 mM tris-HCl/0.1 mM phenylmethylsulfonyl fluoride, (pH 7.4) at 20° C. for 60 minutes. The non-specific binding was determined using 10^-6 M (S)-devapamil. The mixtures were then filtered through glass fiber filters, and the amount of (S)-^3 H-devapamil retained on the filter was determined by liquid scintillation measurement. The Ki values were determined by non-linear regression analysis.

## Fc1ccc(C(c2ccc(F)cc2)N2CCN(C/C=C/c3ccccc3)CC2)cc1 [flunarizine, reference compound]
  pKi: 6.54
